Experimental data published in patent publication US20230201226A1, “COMBINATION THERAPY FOR REDUCING DRUG-INDUCED NEPHROTOXICITY, DYSLIPIDEMIA AND HYPERGLYCEMIA” (Yissum Research Development Company of the Hebrew …, priority 2020, published 2023).
For at least one compound, name, drawing or mass did not settle the structure.

Legend:
[1] = system: Human primary proximal tubule cells (hPTC); assay: Phospholipidosis (Red Phospholipidosis reagent) and neutral lipid (Green LipidTox) staining of kidney cells exposed to kidney damaging agents; assay type: cell-based; conditions: 48 hours, Cyclosporine A 1 μM, Cisplatin 1 μM or Gentamicin 1 mM, Empagliflozin 5 μM or Fenofibrate 20 μM
Procedure: Testing the effect of combination therapy on human kidney cells exposed to kidney damaging agents—Human primary proximal tubule cells (hPTC) were seeded at density of 10,000 cells/cm^2 in a black 96-well plate. When the cells reach 80% density, treatments were induced. […] The drugs were induced either alone (controls) or in combination with Empagliflozin (SGLT2i) at 5 μM or Fenofibrate at 20 μM, themselves in combination with Quercetin at 20 μM. All different solutions included 1× Red Phospholipidosis staining reagent as well. hPTC were incubated with the different combinations for 48 hours at 37° C. 5% CO2 […]. After 48 hours, the media were removed and replaced with Green LipidTox stain to stain for neutral lipids in green (diluted at 1:200 in hPTC medium). After 45 minutes of incubation at 37° C., the plate was mounted onto a Zeiss epifluorescent microscope for quantification. Each condition was tested in three biological replicates, and light settings were the same for all the images. Images were analyzed with ImageJ. […]

[2] = system: human proximal tubule cells (hPTCs); conditions: co-administration with 1 mM gentamicin; Empagliflozin 5 μM or Fenofibrate 20 μM, 48 hours

**Q.** For `CC(C)OC(=O)C(C)(C)Oc1ccc(C(=O)c2ccc(Cl)cc2)cc1` [fenofibrate, Fenofibrate], which “prevention of Cyclosporine A, Cisplatin and Gentamicin induced lipotoxicity by co-administration” value [1] is on record?
**A.** prevented

**Q.** And the “survival of human proximal tubule cells (hPTCs)” value [2]?
**A.** dramatically increased the survival
